Results are given in words; binding and its absence hold for the method and conditions named. For some assays here: In cells and extracts the contact can be indirect. Some results given as binding are weak or reduced against the parent protein; the word gives no strength.
How the values were obtained:
[1] = biological target: CD45 on the surface of Jurkat cells (clone E6-1) and primary human αβ T cells (human) (UniProt P08575); experiment: flow cytometry, FIG. 12C
[2] = biological target: CD45 on the surface of Jurkat cells (clone E6-1) and primary human αβ T cells (human) (UniProt P08575); experiment: flow cytometry, FIG. 12B upper panels
[3] = biological target: CD45 on the surface of Jurkat cells (clone E6-1) and primary human αβ T cells (human) (UniProt P08575); experiment: flow cytometry, Fc protein on Jurkat E6-1 (CD45+) vs. J45.01 (CD45 negative) cells
[4] = biological target: CD45 on the surface of Jurkat cells (clone E6-1) and primary human αβ T cells (human) (UniProt P08575); experiment: flow cytometry, BTN3A1 on primary αβ T cells with or without CRISPR ablation of CD45
[5] = biological target: CD45 on the surface of Jurkat cells (clone E6-1) and primary human αβ T cells (human) (UniProt P08575); experiment: co-immunoprecipitation with BTN3A1-Fc from OKT3-activated primary αβ T cells after crosslinking, LC-MS/MS

The chains behind the UniProt entries cited, without tags or fusion partners. Where a name states a change or a piece, a line headed by the entry shows the natural chain unless it says otherwise. Residues count along the entry.
UniProt P08575, residues 26-1306: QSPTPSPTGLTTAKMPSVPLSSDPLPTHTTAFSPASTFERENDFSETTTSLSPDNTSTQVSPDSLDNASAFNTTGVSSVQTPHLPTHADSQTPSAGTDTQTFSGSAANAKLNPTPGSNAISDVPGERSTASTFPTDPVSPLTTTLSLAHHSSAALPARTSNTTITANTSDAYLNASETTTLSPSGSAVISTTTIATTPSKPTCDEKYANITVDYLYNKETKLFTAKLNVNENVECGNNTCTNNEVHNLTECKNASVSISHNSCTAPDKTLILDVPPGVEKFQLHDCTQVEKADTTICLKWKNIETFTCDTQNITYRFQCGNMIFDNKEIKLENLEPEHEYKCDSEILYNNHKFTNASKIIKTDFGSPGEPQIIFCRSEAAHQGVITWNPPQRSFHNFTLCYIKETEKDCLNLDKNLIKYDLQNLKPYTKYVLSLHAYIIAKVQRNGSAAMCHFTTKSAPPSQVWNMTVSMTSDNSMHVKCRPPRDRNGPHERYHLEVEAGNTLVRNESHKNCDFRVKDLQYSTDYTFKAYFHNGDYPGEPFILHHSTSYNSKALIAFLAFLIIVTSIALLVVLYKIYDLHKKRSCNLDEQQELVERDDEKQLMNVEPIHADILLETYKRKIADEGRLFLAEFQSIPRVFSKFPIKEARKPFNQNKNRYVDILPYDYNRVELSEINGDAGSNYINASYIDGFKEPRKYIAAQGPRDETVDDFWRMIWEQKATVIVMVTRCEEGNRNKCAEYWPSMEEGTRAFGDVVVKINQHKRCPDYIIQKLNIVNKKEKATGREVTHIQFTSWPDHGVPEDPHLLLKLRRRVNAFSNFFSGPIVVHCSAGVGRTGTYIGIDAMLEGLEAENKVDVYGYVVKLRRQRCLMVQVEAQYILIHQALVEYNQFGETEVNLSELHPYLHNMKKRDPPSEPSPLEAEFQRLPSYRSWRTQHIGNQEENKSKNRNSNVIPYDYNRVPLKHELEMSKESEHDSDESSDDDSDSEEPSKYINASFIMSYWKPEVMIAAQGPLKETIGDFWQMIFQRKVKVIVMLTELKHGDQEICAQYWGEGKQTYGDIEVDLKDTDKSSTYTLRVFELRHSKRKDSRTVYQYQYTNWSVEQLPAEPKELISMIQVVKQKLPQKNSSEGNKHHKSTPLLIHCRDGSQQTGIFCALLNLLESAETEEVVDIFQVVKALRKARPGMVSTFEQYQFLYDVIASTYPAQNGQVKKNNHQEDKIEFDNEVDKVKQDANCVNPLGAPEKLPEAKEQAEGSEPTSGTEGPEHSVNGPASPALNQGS
UniProt O00481: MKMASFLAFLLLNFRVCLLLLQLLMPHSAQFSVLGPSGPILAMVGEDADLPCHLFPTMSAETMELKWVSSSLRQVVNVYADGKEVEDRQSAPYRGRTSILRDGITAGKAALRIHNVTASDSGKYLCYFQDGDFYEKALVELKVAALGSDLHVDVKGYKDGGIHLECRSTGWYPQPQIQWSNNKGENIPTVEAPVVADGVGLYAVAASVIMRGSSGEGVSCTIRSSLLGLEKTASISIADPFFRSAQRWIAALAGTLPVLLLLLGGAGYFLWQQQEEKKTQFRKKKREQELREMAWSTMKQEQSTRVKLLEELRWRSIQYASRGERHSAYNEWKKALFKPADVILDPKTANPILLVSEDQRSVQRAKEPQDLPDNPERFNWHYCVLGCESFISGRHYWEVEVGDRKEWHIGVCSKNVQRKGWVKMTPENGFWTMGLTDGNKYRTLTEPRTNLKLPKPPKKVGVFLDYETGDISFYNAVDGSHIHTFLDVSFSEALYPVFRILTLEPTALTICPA

Measured: binding

BTN3A1-Fc fusion protein (R&D systems Cat #8539-BT-050) (from UniProt O00481 30-254)
binds: [1] | [2] | [3] | [4] | [5]

From patent US20210388089A1
